From US4769374A, “Tetrahydroisoquinoline ethyl esters of 1,4-dihydropyridines and antihypertensive compositions” (Poli Industria Chimica S.p.A., priority 1984, dated 1988)

Experiment: in vivo
Settings: mouse, mice of both sexes, oral, day 14 of observation
Experimental: The acute toxicity was determined on mice of both sexes upon oral administration of the compounds to be tested as a suspension in carboxymethylcellulose containing 0.5% of physiologic solution, and it was expressed as an LD50 value at day 14 of observation.

Compound: COC(=O)C1=C(C)NC(C)=C(C(=O)OC)C1c1ccccc1[N+](=O)[O-] [Nifedipine, reference compound]
- LD50 at 336 h: 750 mg/kg
